# PubChem BioAssay AID1259254 – NCATS, 2017
# Aim: 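Gene knock-downs that lead to re-replication, shown by excess G2 DNA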 (primary screen)
# System: human HCT116 colorectal cancer cells
# Knock-down reagent: single siRNA against human genes
# Time to read-out: 3 days
# Read-out: 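Nuclei stained with Hoechst and imaged; cell-cycle phase assigned by DNA content; G2 share scaled per plate, non-targeting siRNA 0%, GMNN siRNA 100%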
# Direction: G2 robust z-score and G2 cells, % of GMNN control: higher = more G2 cells, more excess DNA replication
# Call rule: 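An siRNA counts as active if its G2 robust z-score lies at least 5 MADs above the screen median; here such calls match roughly 38% of GMNN control or more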
# In all, the deposit lists about 59,000 reagents; below is a part drawn at random. In the full data, about 1,550 (2.6%) got an active call. 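G2 share is only a proxy for re-replication; each gene was hit by three separate siRNAs, and active genes were retested.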 Entries without a mark were called inactive. The numbers tell different reagents against one gene apart. Further read-outs or replicates are left out here. Not stated in the record: the amount of reagent.
target,siRNA no.,G2 robust z-score,"G2 cells, % of GMNN control"
SMIM24 (small integral membrane protein 24),1,-0.262,1.13
SMIM24 (small integral membrane protein 24),2,0.747,8.22
SMIM24 (small integral membrane protein 24),3,-0.75,-2.31
CST5 (cystatin D),1,0.308,5.13
CST5 (cystatin D),2,-0.468,-0.327
CST5 (cystatin D),3,-0.543,-0.853
ATP6V0C (ATPase H+ transporting V0 subunit c),1,1.36,12.5
ATP6V0C (ATPase H+ transporting V0 subunit c),2,0.447,6.11
ATP6V0C (ATPase H+ transporting V0 subunit c),3,-0.566,-1.02
ARID1A (AT-rich interaction domain 1A),1,2.42,20
ARID1A (AT-rich interaction domain 1A),2,1.34,12.4
ARID1A (AT-rich interaction domain 1A),3,-0.43,-0.0546
PAIP1 (poly(A) binding protein interacting protein 1),1,-0.64,-1.54
PAIP1 (poly(A) binding protein interacting protein 1),2,-0.356,0.464
PAIP1 (poly(A) binding protein interacting protein 1),3,0.162,4.11
DENND2B (DENN domain containing 2B),1,3.67,28.8
DENND2B (DENN domain containing 2B),2,1.37,12.6
DENND2B (DENN domain containing 2B),3,1.08,10.6
SPATA32 (spermatogenesis associated 32),1,0.672,7.69
SPATA32 (spermatogenesis associated 32),2,-0.203,1.54
SPATA32 (spermatogenesis associated 32),3,-0.41,0.0805
OFD1 (OFD1 centriole and centriolar satellite protein),1,-0.359,0.438
OFD1 (OFD1 centriole and centriolar satellite protein),2,9.23 (active),67.9
OFD1 (OFD1 centriole and centriolar satellite protein),3,1.29,12.1
TUBA3E (tubulin alpha 3e),1,6.9 (active),51.5
TUBA3E (tubulin alpha 3e),2,-0.957,-3.76
TUBA3E (tubulin alpha 3e),3,-0.925,-3.54
"GPAT2 (glycerol-3-phosphate acyltransferase 2, mitochondrial)",1,-0.664,-1.71
"GPAT2 (glycerol-3-phosphate acyltransferase 2, mitochondrial)",2,0.367,5.55
"GPAT2 (glycerol-3-phosphate acyltransferase 2, mitochondrial)",3,-0.822,-2.81
MAT1A (methionine adenosyltransferase 1A),1,-0.369,0.374
MAT1A (methionine adenosyltransferase 1A),2,1.32,12.3
MAT1A (methionine adenosyltransferase 1A),3,4.97,38
TMEM64 (transmembrane protein 64),1,1.59,14.2
TMEM64 (transmembrane protein 64),2,2.82,22.8
TMEM64 (transmembrane protein 64),3,-0.0402,2.68
BHLHE41 (basic helix-loop-helix family member e41),1,1.11,10.8
BHLHE41 (basic helix-loop-helix family member e41),2,0.566,6.95
BHLHE41 (basic helix-loop-helix family member e41),3,0.731,8.11
LMO7 (LIM domain 7),1,-0.493,-0.5
LMO7 (LIM domain 7),2,2.96,23.8
LMO7 (LIM domain 7),3,-0.84,-2.94

Reagents listed so far with an active call:
target,siRNA no.,G2 robust z-score,"G2 cells, % of GMNN control"
OFD1 (OFD1 centriole and centriolar satellite protein),2,9.23 (active),67.9
TUBA3E (tubulin alpha 3e),1,6.9 (active),51.5

The list goes on:
target,siRNA no.,G2 robust z-score,"G2 cells, % of GMNN control"
PSTK (phosphoseryl-tRNA kinase),1,2.13,18
PSTK (phosphoseryl-tRNA kinase),2,2.4,19.8
PSTK (phosphoseryl-tRNA kinase),3,0.986,9.91
DSG2 (desmoglein 2),1,-0.164,1.81
DSG2 (desmoglein 2),2,0.434,6.02
DSG2 (desmoglein 2),3,0.378,5.62
TANK (TRAF family member associated NFKB activator),1,0.947,9.63
TANK (TRAF family member associated NFKB activator),2,0.438,6.05
TANK (TRAF family member associated NFKB activator),3,1.12,10.9
NMBR (neuromedin B receptor),1,2.97,23.9
NMBR (neuromedin B receptor),2,-0.892,-3.31
NMBR (neuromedin B receptor),3,0.126,3.85
DHFR (dihydrofolate reductase),1,-1.62,-8.44
DHFR (dihydrofolate reductase),2,-0.778,-2.5
DHFR (dihydrofolate reductase),3,-0.603,-1.28
NELL1 (neural EGFL like 1),1,-0.296,0.887
NELL1 (neural EGFL like 1),2,-1.22,-5.59
NELL1 (neural EGFL like 1),3,5.3 (active),40.2
IL25 (interleukin 25),1,0.373,5.59
IL25 (interleukin 25),2,0.0905,3.6
IL25 (interleukin 25),3,-0.471,-0.348
CLN8 (CLN8 transmembrane ER and ERGIC protein),1,-0.0367,2.71
CLN8 (CLN8 transmembrane ER and ERGIC protein),2,-0.384,0.264
CLN8 (CLN8 transmembrane ER and ERGIC protein),3,-0.236,1.31
SCMH1 (Scm polycomb group protein homolog 1),1,-1.32,-6.29
SCMH1 (Scm polycomb group protein homolog 1),2,0.85,8.94
SCMH1 (Scm polycomb group protein homolog 1),3,4.76,36.4
HIGD1A (HIG1 hypoxia inducible domain family member 1A),1,1.12,10.9
HIGD1A (HIG1 hypoxia inducible domain family member 1A),2,-0.499,-0.545
HIGD1A (HIG1 hypoxia inducible domain family member 1A),3,0.586,7.09
KIF6 (kinesin family member 6),1,-0.551,-0.912
KIF6 (kinesin family member 6),2,-0.0441,2.66
KIF6 (kinesin family member 6),3,0.598,7.18
ELMO3 (engulfment and cell motility 3),1,-0.182,1.69
ELMO3 (engulfment and cell motility 3),2,-0.252,1.2
ELMO3 (engulfment and cell motility 3),3,-0.502,-0.566
CXCL11 (C-X-C motif chemokine ligand 11),1,0.795,8.56
CXCL11 (C-X-C motif chemokine ligand 11),2,-0.483,-0.428
CXCL11 (C-X-C motif chemokine ligand 11),3,0.519,6.62
ZNF24 (zinc finger protein 24),1,-0.646,-1.58
ZNF24 (zinc finger protein 24),2,0.293,5.03
ZNF24 (zinc finger protein 24),3,-0.0449,2.65
PDCL2 (phosducin like 2),1,-0.656,-1.65
PDCL2 (phosducin like 2),2,-0.399,0.157
PDCL2 (phosducin like 2),3,-0.117,2.15
